These results are taken from PubChem BioAssay AID2685 (National Center for Advancing Translational Sciences (NCATS), 2010).

Structures are written as SMILES. The list shows a part of the results. Further columns of the screen follow, without active or inactive calls. The list favours compounds with an active or inconclusive main result. The note in brackets gives the kind of curve behind each potency; many fits are weak.

This assay is described as follows: qHTS Assay for Lipid Storage Modulators in Drosophila S3 Cells.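 For cell number change: cells counted by Cell Tracker Red CMTPX staining in the red channel.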 To be noted: BODIPY lipid droplet fluorescence, 18-24 h; for cell number change: measured here: cell count max response, cells fed with added oleic acid. In outline: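 Laser-scanning cytometry quantifies lipid droplet accumulation (500–530 nm total intensity; droplet/cell object ratio) in oleic acid-fed (400 uM added) Drosophila S3 cells treated with a concentration series. 20 uM Triacsin C defined 100% inhibition.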

Setting [1] is: measured here: lipid fluorescence (Fed channel) AC50, cells fed with added oleic acid.
The mark [2] stands for this setting: measured here: cell number channel AC50, cells fed with added oleic acid.

For `O=C(Nc1cccc(O)c1)c1ccc(C(=O)c2ccccc2)o1`, the cell number change is 7.9%.

Take `CC(C)Cn1c(N)c(C(=O)COC(=O)C2CC(=O)N(c3ccc4c(c3)OCCO4)C2)c(=O)n(C)c1=O` (configuration not stated): the cell number change was -25%.

Take `Cc1sc2ncnc(N3CCC(C(=O)NNC(=O)COc4ccc(Br)cc4)CC3)c2c1C`: the cell number change is -16.7%. The AC50 under setting [1] was 0.00651 µM [falling, full curve, poor fit].

In the case of `CCc1ccc(-c2nc(SCC(=O)NC3CCCC3)n[nH]2)cc1`, the cell number change is -43.6%.

As to `CC1CCN(C(=O)c2cc3nc(-c4ccccc4)cc(-c4ccccc4)n3n2)CC1`, the cell number change stood at 4.83%. Under setting [2], the AC50 was 0.411 µM [rising, full curve]. Under setting [1], the AC50 was 0.517 µM [rising, full curve].

For the compound `CN(C)S(=O)(=O)c1cccc(NC(=O)c2ccc(S(=O)(=O)N3CCCCC3)cc2)c1`, the cell number change was determined as 15%. For the same compound, under setting [1], the AC50 was 29.1 µM [rising, single point].

On to `CCNC(=O)NNC(=O)C1CC(c2cccs2)=NO1` (configuration not stated), for which the cell number change is -32%. In addition, the AC50 under setting [2] is 3.66 µM [falling, full curve]. The AC50 under setting [1] is 3.66 µM [falling, full curve].

For `CCOC(=O)c1c(C)[nH]c(C(=O)COC(=O)CCC(=O)c2ccc3c(c2)OCCO3)c1C`, the cell number change was 1.36%. For the same compound, under setting [1], the concentration at half-maximal activity (AC50) was 1.46 µM [rising, partial curve, poor fit].

On to `Cc1cc(C)n2nc(S(=O)(=O)Nc3c(Cl)cccc3Cl)nc2n1`, for which the cell number change was -49.4%. Moreover, the AC50 under setting [2] was 0.92 µM [falling, full curve, poor fit]. Moreover, the concentration at half-maximal activity (AC50) under setting [1] is 3.26 µM [falling, partial curve, poor fit].

`Cc1ccc(-c2nnn(CC(=O)N(CC(=O)NC3CCCC3)c3ccccc3F)n2)o1`: the cell number change is 12.5%. The AC50 under setting [1] is 14.6 µM [rising, partial curve, poor fit].

As to `Cn1cc(Br)c(C(=O)NNC(=O)Nc2ccccc2C(F)(F)F)n1`, the cell number change was -11.5%. The AC50 under setting [1] was 0.82 µM [falling, partial curve, poor fit].

Take `CC(NC(=O)CN1C(=O)NC2(CCc3ccccc32)C1=O)c1ccc2c(c1)OCCO2` (configuration not stated): the cell number change was 2.39%.

On to `Nc1nc(CN2CCN(c3ccccc3)CC2)nc(Nc2ccc(Cl)cc2)n1`, for which the cell number change is -9.07%.

In the case of `C=CCc1cc(C)ccc1OCC(O)CN1CCN(c2ccccc2)CC1` (configuration not stated), the cell number change is -82.5%. Under setting [2], the AC50 was 16.4 µM [falling, partial curve].

As to `Cc1ccccc1NS(=O)(=O)c1ccc(N2CCCC2=O)cc1`, the cell number change is -7.32%. Moreover, the AC50 under setting [1] was 0.291 µM [rising, full curve, poor fit].

With `CCOc1ccc(NC(=O)c2ccccc2OCC(=O)c2ccc(C)cc2)cc1`, the cell number change was determined as 4.57%. The AC50 under setting [1] is 6.51 µM [rising, single point].

For `COC(=O)c1[nH]c2ccc(Cl)cc2c1NC(=O)c1ccccc1[N+](=O)[O-]`, the cell number change is -26.1%. In addition, the AC50 under setting [1] is 18.4 µM [falling, single point].

Take `Cc1ccc(-c2c(NC(=O)c3ccco3)oc3ccccc3c2=O)cc1`: the cell number change was -4.48%. For the same compound, the half-maximal activity concentration (AC50) under setting [1] was 0.13 µM [rising, full curve, poor fit].

On to `COc1ccc(OC)c(NC(=O)c2cccc(N3C(=O)C4C5C=CC(C6CC56)C4C3=O)c2)c1` (configuration not stated), for which the cell number change is -45.9%. Besides, under setting [2], the AC50 is 23.1 µM [falling, partial curve]. Further, the half-maximal activity concentration (AC50) under setting [1] was 18.4 µM [falling, partial curve].

Take `O=C(COC(=O)c1cc2c(s1)CCC2)Nc1ccc(F)cc1`: under setting [1], the concentration at half-maximal activity (AC50) was 25.9 µM [rising, single point].

Regarding `Cc1ccc(Nc2nc(-c3ccc(O)cc3O)cs2)nc1`, the cell number change was -67.5%. In addition, under setting [2], the AC50 was 16.4 µM [falling, single point]. The AC50 under setting [1] was 20.6 µM [falling, single point].

Take `Cc1ccc2nc(SCC(=O)N3CCC(C)CC3)nc(=O)n2c1`: the cell number change was -43.6%. Moreover, the AC50 under setting [2] was 0.092 µM [falling, full curve, poor fit]. In addition, the AC50 under setting [1] is 0.517 µM [falling, partial curve, poor fit].

In the case of `COc1cc(S(=O)(=O)N2CCCCCC2)ccc1Cl`, the cell number change was -8.33%.

As for `COc1cc(OC)cc(-c2c(-c3cccs3)c3cc(-c4ccc5c(c4)OCO5)ccc3n2C)c1`, the cell number change is -5.3%. Besides, the AC50 under setting [2] is 0.517 µM [falling, partial curve]. Moreover, the AC50 under setting [1] is 0.326 µM [falling, partial curve].

As to `Cc1ccc2ncnc(-c3ccccc3)c2c1`, the cell number change is 14.4%.

For `S=c1[nH]nc(-c2ccc(Cl)cc2Cl)n1-c1ccccc1`, the cell number change amounted to 23.5%. The half-maximal activity concentration (AC50) under setting [1] was 6.51 µM [rising, single point].

Turning to `Cc1ccc(NS(=O)(=O)c2ccc(C(=O)N3CCN(S(=O)(=O)c4ccccc4)CC3)cc2)cc1`, the cell number change was -37.2%. For the same compound, the AC50 under setting [2] was 20.6 µM [falling, partial curve, poor fit]. For the same compound, the half-maximal activity concentration (AC50) under setting [1] is 3.26 µM [falling, partial curve].

`C=CCOc1cccc(CNCc2ccncc2)c1`: the cell number change stood at 23.5%.

For the compound `CNC(=O)c1cc(NC(=O)CCn2nc(-c3ccc(C)cc3)c3ccccc3c2=O)ccc1OC`, the cell number change was found to be 19.1%.

Regarding `Cc1cc(=O)oc2cc(OCC(=O)OCC(=O)NC(=O)NC(C)C)ccc12`, the cell number change is -44.9%. Besides, the AC50 under setting [2] is 2.91 µM [falling, full curve]. Also, the concentration at half-maximal activity (AC50) under setting [1] was 11.6 µM [falling, partial curve].

On to `CCOC(=O)C1=C(CN2CCN(C(=O)c3ccco3)CC2)NC(=O)NC1c1ccccc1` (configuration not stated), for which the cell number change is -15.4%.

For the compound `Cc1ccccc1-c1coc2cc(O)ccc2c1=O`, the cell number change was -8.35%. Further, the AC50 under setting [2] was 0.82 µM [falling, full curve]. Under setting [1], the AC50 is 0.82 µM [falling, full curve, poor fit].

Take `C=CCOC(=O)CSCC(NC(=O)OC(C)(C)C)C(=O)OCC` (configuration not stated): the cell number change was -8.21%. Moreover, under setting [2], the half-maximal activity concentration (AC50) is 4.11 µM [rising, single point].

As to `COc1cccc(C(=O)NCc2ccc(N3CCN(C(=O)OC(C)(C)C)CC3)cc2)c1`, the half-maximal activity concentration (AC50) under setting [1] was 6.51 µM [falling, partial curve].

In the case of `CN(CC(=O)Nc1ccccc1C(F)(F)F)C(=O)Cc1ccccc1F`, the cell number change is -5.86%. Moreover, the AC50 under setting [1] was 0.13 µM [rising, full curve, poor fit].

For the compound `COc1ccc(CNC(=O)CN2C(=O)NC3(CCCc4sccc43)C2=O)cc1` (configuration not stated), the half-maximal activity concentration (AC50) under setting [2] is 2.06 µM [falling, partial curve, poor fit] and the AC50 under setting [1] is 1.46 µM [falling, partial curve, poor fit].

`CCCCOc1ccc(CSc2nncn2N)cc1`: the cell number change stood at 0.847%. The AC50 under setting [1] was 0.82 µM [falling, full curve, poor fit].
